# Results: PubChem BioAssay AID504834 (National Center for Advancing Translational Sciences (NCATS), 2011)
# “And” between values parts separate entries of the source, which are not always exact repeats. Identical values can stand only once. Hit rate of the full screen: of about 320,000 compounds, about 22,000 (6.9%) were called active. The shares of active, inactive and inconclusive entries below differ from those in the screen. Calls come from the whole dose curve; as a rule, active = well fitted inhibition curve with a large enough effect; inconclusive = small, poorly fitted or top-dose-only effect, or another doubt; inactive = no such curve, though single readings can be large or run the other way. A potency beside an inconclusive call is a rough fit, not a confirmed value. A structure can be active in one record and inactive in another.
# Test: Primary qHTS for delayed death inhibitors of the malarial parasite plastid, 96 hour incubation
# Settings: P. falciparum luciferase reporter growth; series mostly up to 28.7 µM; activity change, negative = inhibition: at the top concentration
# Method in brief: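 Two parasite generations (96 h, 37 C, 5% CO2) of compound exposure in infected erythrocytes (0.05% parasitemia, 2% hematocrit). Luciferase-reporter P. falciparum; decreased luminescence indicates inhibited growth, aimed at apicoplast-acting delayed death.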
# % is set by controls: 0 for no effect and ±100 for the full control effect; potency is the fitted concentration of half-maximal effect.
SMILES,Potency,"activity change, negative = inhibition"
O=C(Nc1cccn(Cc2c(Cl)cccc2Cl)c1=O)c1c(Cl)cccc1Cl,"inconclusive: 14.7 µM [inhibitor, partial curve]",–
CC(NC(=O)CSc1cccc(C(F)(F)F)c1)c1ccccc1 (configuration not stated),"inconclusive: 18.5 µM [inhibitor, single point]",–
O=C(c1ccc(Br)cc1)C(CN1CCOCC1)c1ccccc1 (configuration not stated),"inconclusive: 5.86 µM [inhibitor, partial curve]",–
C(=C\c1nc(-c2ccccc2)no1)/c1ccccc1,"inconclusive: 18.5 µM [inhibitor, single point]",–
CC(C)CCN1C(=O)c2ccc(C(=O)NCC3CCCO3)cc2C1=O (configuration not stated),active: 4.15 µM,–
N#CCCCSc1nnc(-c2ccccn2)o1,"inconclusive: 18.5 µM [inhibitor, single point]",–
Cc1ccsc1/C=C1\CCc2ccccc2C1=O,active: 10.4 µM,–
Cc1[nH]c2ccccc2c1SCC(=O)N1CCCCC1,–,inactive: 88.7%
O=[N+]([O-])c1cccnc1Oc1ccccc1F,"inconclusive: 13.1 µM [inhibitor, partial curve]",–
Cc1ccc(NC(=O)CCc2c(C)nn(-c3ccc(N4CCCCC4)nn3)c2C)cc1C,–,inactive: 12.1%
CC(NC(=O)C(=O)NCCc1c[nH]c2ccccc12)c1ccccc1 (configuration not stated),–,inactive: 9.3%
Cc1ccc(-c2ccc(=O)n(CCC(=O)N3CCN(Cc4ccccc4)CC3)n2)cc1,"inconclusive: 8.28 µM [inhibitor, partial curve, poor fit]",–
Cc1cc(C(=O)NC2CC(C)(C)Cc3c2cnn3-c2ccccc2)n(C)n1 (configuration not stated),"inconclusive: 5.86 µM [inhibitor, partial curve]",–
Cc1ccccc1N1CC(C(=O)Nc2nnc(SCCN3CCOCC3)s2)CC1=O (configuration not stated),active: 4.15 µM,–
Cc1ccc(S(=O)(=O)NNC(=O)Nc2cccc(F)c2)c(C)c1,"inconclusive: 16.5 µM [inhibitor, single point]",–
CCC(=O)Nc1ccc(NC(=O)CCc2ccccc2)cn1,"inconclusive: 18.5 µM [inhibitor, single point]",–
CN(c1ccccc1)S(=O)(=O)c1cccc(C(=O)NCCc2ccc(O)c(O)c2)c1,"inconclusive: 11.7 µM [inhibitor, single point]",–
Cc1c(C)n(CC(O)CN2CCCCCC2)c2ccccc12 (configuration not stated),–,inactive: 185%
Cc1c(C(=O)c2ccc(F)cc2)c2ccccn2c1CCc1ccccn1,active: 4.15 µM,–
CN1CCc2cccc3c2[C@H]1Cc1ccc(O)c(O)c1-3,active: 2.08 µM and active: 2.33 µM,–
O=C(CSc1ccc(F)cc1)Nc1ccccc1N1CCOCC1,"inconclusive: 10.4 µM [inhibitor, single point]",–
CCS(=O)(=O)Nc1ccc(C2=NN(C(=O)c3ccccc3)C(c3cccs3)C2)cc1 (configuration not stated),"inconclusive: 3.29 µM [inhibitor, single point]",–
Cc1ccc(C)c(SCC(=O)Nc2cccc(S(=O)(=O)N3CCOCC3)c2)c1,"inconclusive: 11.7 µM [inhibitor, single point]",–
CCCCn1c(SCC(=O)NC2CC(C)(C)NC(C)(C)C2)nc2cc(S(N)(=O)=O)ccc21,–,inactive: 31.5%

SMILES,Potency,"activity change, negative = inhibition"
COc1ccc(-c2ccc(OC)c([C@H]3[C@@H]4C=CCC[C@@]4(C)C(=O)N3Cc3ccccc3)c2)cc1OC,active: 11.7 µM,–
C/C(=N/NC(=O)CN1CCN(Cc2ccccc2Cl)CC1)c1ccco1,"inconclusive: 10.4 µM [inhibitor, single point]",–
COc1ccc(CNC(=O)COC(=O)c2c(-c3c(F)cccc3Cl)noc2C)cc1OC,"inconclusive: 5.22 µM [inhibitor, partial curve, poor fit]",–
Cc1ccc2cc(C)c3nnc(SCC(=O)Nc4nc5c(s4)CCCC5)n3c2c1C,active: 11.7 µM,–
CC(C)C1(C)C(=O)N=C2c3ccccc3C(=O)N21 (configuration not stated),active: 11.7 µM,–
CCOC(=O)c1c(C)c(C(=O)Nc2ccc(F)cc2)c(C)n1C,"inconclusive: 18.5 µM [inhibitor, partial curve, poor fit]",–
COC(=O)c1c(NC(=O)C(C)(C)C)sc2c1CCN(Cc1ccccc1)C2,"inconclusive: 18.5 µM [inhibitor, single point]",–
COc1ccc(-c2csc(N3CCN(c4cc5c(cc4Cl)nc(-c4ccncc4)n5CCOCCO)CC3)n2)cc1,active: 3.7 µM,–
CCOc1cccc(CNCCSc2nnnn2C)c1,"inconclusive: 0.0415 µM [inhibitor, full curve]",–
O=C1CCCCCN1CSc1nc2ccccc2s1,–,inactive: 1.14%
CCOC(=O)C1CCCN(CC(=O)NC2CC2)C1 (configuration not stated),"inconclusive: 0.586 µM [inhibitor, partial curve, poor fit]",–
CN1CCN(C(=O)C2CC(c3ccc(F)cc3)=NO2)CC1 (configuration not stated),"inconclusive: 0.0037 µM [inhibitor, full curve, poor fit]",–
COc1ccc(C(O)c2nccn2Cc2ccccc2)cc1OC (configuration not stated),"inconclusive: 18.5 µM [inhibitor, single point]",–
Cc1cc(C)c(NC(=O)Nc2ccccc2)c(Cl)c1,–,inactive: 26.1%
CCCCCOC(=O)Nc1nc(=O)n(C2O[C@H](C)[C@@H](O)[C@@H]2O)cc1F (some centres not stated),"inconclusive: 19 µM [inhibitor, single point]",–
Cn1cc(/C=N/NC(=O)c2ccc(C#N)cc2F)c2ccccc21,–,inactive: -1.11%
Cc1ccc(C(=O)N2CCN(c3ccccn3)CC2)cc1C,"inconclusive: 9.28 µM [inhibitor, partial curve, poor fit]",–
O=C(Nc1ccccc1-c1nnn(CC(=O)N2CCCc3ccccc32)n1)c1ccco1,–,inactive: 81%
CCn1nc(C(=O)OCC(=O)c2cc(C)n(Cc3cccs3)c2C)c2ccccc2c1=O,–,inactive: 16.2%
CN(Cc1ccccc1)c1c([N+](=O)[O-])c(=O)n(C)c2ccccc12,"inconclusive: 0.586 µM [inhibitor, full curve, poor fit]",–
O=C(c1ccco1)n1nc(-c2ccco2)nc1SCc1ccccc1,–,inactive: -17.6%
COc1cc(/C=C2\SC(=Nc3ccc(O)cc3)NC2=O)cc(OC)c1O,active: 9.28 µM,–
CC(C)C1CC(CCNCc2ccc(N(C)C)cc2)(c2ccccc2)CCO1 (configuration not stated),"inconclusive: 18.5 µM [inhibitor, single point]",–
COc1cc(-c2nnc3sc(C4CCCCC4)nn23)cc(OC)c1OC,active: 5.22 µM,–

SMILES,Potency,"activity change, negative = inhibition"
CC(=O)OCCNC(=O)c1cccnc1,"inconclusive: 20.8 µM [inhibitor, single point]",–
Cc1cccc(OCC(=O)Nc2ccc(S(=O)(=O)Nc3onc(C)c3C)cc2)c1C,"inconclusive: 10.4 µM [inhibitor, partial curve]",–
Cc1ccccc1NC(=O)Cc1nc(COC(=O)c2cc([N+](=O)[O-])ccc2N)cs1,"inconclusive: 4.65 µM [inhibitor, partial curve]",–
COc1ccc(S(=O)(=O)N2CC(=O)Nc3ccccc32)cc1F,"inconclusive: 18.5 µM [inhibitor, single point]",–
Cc1ccc(NC(=O)CSCC(=O)Nc2cc(Cl)ccc2N2CCN(C)CC2)cc1,"inconclusive: 10.4 µM [inhibitor, single point]",–
O=C1NC[C@H](Cc2ccc(O)cc2)N(CCc2cccc3ccccc23)C1=O,"inconclusive: 10.4 µM [inhibitor, single point]",–
CCSc1nnc(NC(=O)C2CCCN(S(=O)(=O)c3cnc[nH]3)C2)s1 (configuration not stated),–,inactive: 0.302%
CCOc1ccc(S(=O)(=O)NCCC(=O)NCc2cccnc2)cc1,–,inactive: 2.99%
CCOC(=O)c1nc(Nc2ccc(Nc3ccccc3)cc2)c2ccccc2n1,"inconclusive: 10.4 µM [inhibitor, single point]",–
COc1ccc(/C=C(\C#N)C(=O)OCC(=O)NCc2ccco2)cc1,"inconclusive: 10.4 µM [inhibitor, partial curve, poor fit]",–
O[C@H]1C2CCC1C(N1CCCCC1)CC2 (some centres not stated),–,inactive: 3.86%
COc1ccc(CN2CC3CC(C2)c2cccc(=O)n2C3)cc1OC (configuration not stated),"inconclusive: 0.37 µM [inhibitor, full curve, poor fit]",–
O=C(Cn1cncn1)NCc1cc(F)ccc1F,"inconclusive: 11.7 µM [inhibitor, partial curve, poor fit]",–
COc1ccc2c(c1)-c1c(sn(-c3ccc(OC)c(OC)c3)c1=S)C(C)(C)N2,active: 10.4 µM,–
Cc1ccc(NC(=O)c2cc(N3C(=O)C=CC3=O)ccc2N2CCOCC2)cc1Cl,–,inactive: 8.64%
Cc1cccn2c(=O)c3cc(C(=O)N4CC(C)CC(C)C4)sc3nc12 (configuration not stated),"inconclusive: 11.7 µM [inhibitor, single point]",–
COc1cccc(OC)c1C(=O)Nc1ccccc1N1CCCCC1,–,inactive: 39.2%
O=C(CSc1nnc(-c2cccs2)n1CC1CCCO1)c1cc2ccccc2o1 (configuration not stated),active: 11.7 µM,–
CCC(C(=O)Nc1ccc(S(=O)(=O)Nc2ncccn2)cc1)c1ccccc1 (configuration not stated),"inconclusive: 18.5 µM [inhibitor, single point]",–
Cc1cc[n+](-c2nc3ccccc3nc2[N-]S(=O)(=O)c2ccccc2)cc1,–,inactive: -10.7%
COc1ccc(CCC(=O)N2CCCC(Nc3ccc(OC)cc3)C2)cc1 (configuration not stated),"inconclusive: 14.7 µM [inhibitor, single point]",–
CSCCC(C(=O)NC1=NCCS1)N1C(=O)c2ccccc2C1=O (configuration not stated),"inconclusive: 4.15 µM [inhibitor, partial curve, poor fit]",–
CC(C)C(=O)NC(=S)/C=C1/N(C)c2ccccc2C1(C)C,"inconclusive: 18.5 µM [inhibitor, single point]",–
COc1cccc(Nc2ncnc3c2cnn3C)c1,"inconclusive: 18.5 µM [inhibitor, single point]",–
